The source of these data is PMC4548209.

The chains behind the UniProt entries cited, without tags or fusion partners. Where a name states a change or a piece, a line headed by the entry shows the natural chain unless it says otherwise.
UniProt P42582: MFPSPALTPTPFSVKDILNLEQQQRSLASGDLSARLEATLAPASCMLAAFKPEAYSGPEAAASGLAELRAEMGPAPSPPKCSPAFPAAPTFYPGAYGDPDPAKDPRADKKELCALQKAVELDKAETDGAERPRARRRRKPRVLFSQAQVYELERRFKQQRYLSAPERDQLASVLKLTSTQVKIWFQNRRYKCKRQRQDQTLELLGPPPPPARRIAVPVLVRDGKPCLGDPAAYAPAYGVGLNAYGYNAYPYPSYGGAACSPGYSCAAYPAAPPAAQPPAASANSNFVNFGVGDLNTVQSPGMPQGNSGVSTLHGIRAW

These are yes or no findings as the source states them, for the method shown. Binding can be weak; no strength is given.

The target in the assay is Full-length NKX2-5 (yeast two-hybrid fusion) (mouse) (UniProt P42582). The assay can be described thus: two-hybrid; pGADT7-AD and pGBKT7-DBD fusions co-transformed into S. cerevisiae AH109; interaction as growth on -Ade/-His/-Leu/-Trp plates; three independent experiments.

“NKX2-5 C-terminus with mutated NK2-specific domain (yeast two-hybrid fusion) (from UniProt P42582) (domain or fragment)”: the binding entry is reported as “binds”. As for “NKX2-5 C-terminus with mutated Nkx2-5 box (yeast two-hybrid fusion) (from UniProt P42582) (domain or fragment)”, the entry is “binds”.
